Measured values: patent publication US20070025915A1
These are yes or no findings as the source states them, for the method shown. Some results given as binding are weak or reduced against the parent protein; the word gives no strength.

Sequences of proteins named here, by UniProt entry; tags and fusion partners are left off. Residues count along the entry.
UniProt P08603, residues 19-1231: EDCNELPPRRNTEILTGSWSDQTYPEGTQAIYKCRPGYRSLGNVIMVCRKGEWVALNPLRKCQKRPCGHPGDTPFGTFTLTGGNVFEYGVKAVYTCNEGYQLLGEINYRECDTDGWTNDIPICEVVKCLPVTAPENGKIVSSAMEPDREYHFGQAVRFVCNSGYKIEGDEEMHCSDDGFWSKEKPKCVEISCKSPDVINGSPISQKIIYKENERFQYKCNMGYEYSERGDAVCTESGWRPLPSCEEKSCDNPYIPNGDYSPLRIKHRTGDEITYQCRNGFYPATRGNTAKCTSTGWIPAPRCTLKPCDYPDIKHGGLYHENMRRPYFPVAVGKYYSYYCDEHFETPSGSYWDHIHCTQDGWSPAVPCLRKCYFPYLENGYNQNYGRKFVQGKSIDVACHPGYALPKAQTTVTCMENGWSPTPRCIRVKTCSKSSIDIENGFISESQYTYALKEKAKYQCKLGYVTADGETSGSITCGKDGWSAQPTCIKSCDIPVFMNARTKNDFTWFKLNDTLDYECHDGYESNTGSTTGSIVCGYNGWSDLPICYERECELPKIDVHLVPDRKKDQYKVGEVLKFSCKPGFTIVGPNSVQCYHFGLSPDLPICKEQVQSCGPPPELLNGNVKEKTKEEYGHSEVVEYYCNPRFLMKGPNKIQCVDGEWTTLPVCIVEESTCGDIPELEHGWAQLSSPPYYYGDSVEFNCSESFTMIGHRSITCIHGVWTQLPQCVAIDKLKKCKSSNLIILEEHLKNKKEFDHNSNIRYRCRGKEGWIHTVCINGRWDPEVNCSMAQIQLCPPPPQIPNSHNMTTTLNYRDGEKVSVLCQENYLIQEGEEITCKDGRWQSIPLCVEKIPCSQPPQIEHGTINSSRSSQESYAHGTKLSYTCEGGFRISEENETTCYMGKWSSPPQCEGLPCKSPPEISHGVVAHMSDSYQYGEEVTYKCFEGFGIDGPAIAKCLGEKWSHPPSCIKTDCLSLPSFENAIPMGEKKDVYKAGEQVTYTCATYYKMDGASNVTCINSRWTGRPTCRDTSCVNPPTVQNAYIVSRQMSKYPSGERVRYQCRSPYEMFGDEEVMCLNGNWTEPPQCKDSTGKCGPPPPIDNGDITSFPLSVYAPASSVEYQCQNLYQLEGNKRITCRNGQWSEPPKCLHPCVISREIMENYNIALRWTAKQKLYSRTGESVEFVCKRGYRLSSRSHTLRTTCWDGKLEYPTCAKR

Key:
[1] = biological target: human complement factor H (human) (UniProt P08603); test: non-radioactive ligand blot, 70 nM labeled AM on human plasma proteins
[2] = biological target: human complement factor H (human) (UniProt P08603); test: ligand blot of human plasma proteins

B1: AM labeled with biotin (peptide, UniProt P35318 95-146, looked up)
peptide: YRQSMNNFQGLRSFGCRFGTCTVQKLAHQIYQFTDKDKDNVAPRSKISPQGY
modifications: biotin conjugated through a succinimidyl ester (10:1 linker:AM); site not stated
[1]
  binding: binds
[2]
  binding: binds
